Experimental data taken from paper PMC8959600 (eLife, 2022).

Columns and labels:
S. flexneri 2457T = assay: Gnotobiotic piglet Shigella infection model, efficacy; type: in vivo; settings: infected gnotobiotic piglets, 50 mg/kg oral, p < 0.001 for AUC of score plots
[1] = paediatric population, Tebipenem-Pivoxil PO; ref Sato et al., 2008; cited from earlier work

In the case of C[C@@H](O)[C@H]1C(=O)N2C(C(=O)OCOC(=O)C(C)(C)C)=C(SC3CN(C4=NCCS4)C3)[C@H](C)[C@H]12 [Tebipenem pivoxil], the “severity of diarrhoea and frequency of diarrheal stools vs control animals” value (S. flexneri 2457T) is listed as “significantly reduced”, the AUC0-tlast [1] is listed as 16100 ± 3300 ng·h/mL and the Cmax [1] is listed as 7500 ± 3900 ng/mL. For the same compound, the Tmax [1] was 42 ± 12 min.
